Laboratory results reported in PubChem BioAssay AID1259354 (Paczesny and Yang Labs, IUPUI and University of Michigan, 2018).
Among all 78,000 compounds or so, about 1,800 (2.3%) were called active. Inconclusive results, whose numbers are uncertain, are shown with a selection of clear calls. No stated cut-off is given here; in the data, active means inhibition above about 30%; inconclusive means mostly about 10% to 28%; inactive means weaker than that.

Amino acid sequences for entries named in this document (tags omitted). A change or cut given only in a name is not applied to a line headed by its entry.
UniProt Q01638: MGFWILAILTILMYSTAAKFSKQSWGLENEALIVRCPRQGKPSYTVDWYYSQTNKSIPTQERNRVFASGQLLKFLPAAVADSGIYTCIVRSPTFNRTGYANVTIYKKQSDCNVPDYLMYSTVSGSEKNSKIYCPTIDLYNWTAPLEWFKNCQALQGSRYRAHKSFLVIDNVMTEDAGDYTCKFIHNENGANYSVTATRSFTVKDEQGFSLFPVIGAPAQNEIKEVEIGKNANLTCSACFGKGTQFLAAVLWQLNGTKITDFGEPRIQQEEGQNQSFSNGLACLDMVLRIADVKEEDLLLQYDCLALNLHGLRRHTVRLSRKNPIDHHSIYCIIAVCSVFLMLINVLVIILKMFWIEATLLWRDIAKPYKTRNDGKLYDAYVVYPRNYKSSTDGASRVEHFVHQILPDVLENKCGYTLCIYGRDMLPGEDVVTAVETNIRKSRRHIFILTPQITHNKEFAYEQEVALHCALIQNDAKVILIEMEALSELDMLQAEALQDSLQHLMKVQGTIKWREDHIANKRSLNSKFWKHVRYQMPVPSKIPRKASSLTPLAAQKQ

The compounds below were run against Interleukin-1 receptor-like 1 (Homo sapiens) (UniProt Q01638) (assay: blocks human ST2 binding to IL-33, primary screen, biochemical, AlphaLISA (AID 1259354)). Conditions: AlphaLISA ST2-Fc/biotin-IL-33 interaction, 1 h; at 17 µM, stronger effect = higher value.

| SMILES | inhibition |
| --- | --- |
| CN(Cc1ccccc1)Cc1cn([C@H]2CO[C@H]3[C@@H]2OC[C@@H]3NS(=O)(=O)c2cccs2)nn1 | inconclusive: 12% |
| Cc1ccc(S(=O)(=O)Nc2ccc(NS(=O)(=O)c3ccc(C)cc3)c(Cl)c2)cc1 | inconclusive: 12% |
| Cc1cccc(NC(=O)c2ccc([N+](=O)[O-])cc2Cl)c1 | active: 31% |
| N#Cc1c(C(F)(F)F)cc(-c2cccs2)nc1SCC(=O)Nc1ccc([N+](=O)[O-])cc1 | active: 38% |
| COc1ccc(CCN2C(=O)[C@@H]3[C@H](C2=O)[C@H]2C=C[C@@H]3C23CC3)cc1OC | inconclusive: 18% |
| CCN1CCc2c(sc(NC(=O)COc3ccccc3)c2C(=O)OC)C1 | inactive |
| O=C(NCc1ccc(F)cc1)C1CC(=O)N(C2CCCCCC2)C1 (stereo not drawn) | inconclusive: 21% |
| CCC(=O)Nc1ccc(NC(=O)Cc2ccccc2OC)cc1Cl | inactive |
| COc1ccc(Oc2coc3cc(OCC(=O)OCC(C)C)ccc3c2=O)cc1 | inactive |
| CC(C)C1CN(C(=O)CCc2ccc(=O)[nH]n2)CCCN1CC1CC1 (stereo not drawn) | inconclusive: 12% |
| COc1ccc(C2CC(=O)N3CN(c4ccc(OC)cc4)CSC3=C2C#N)cc1 (stereo not drawn) | inconclusive: 10% |
| CCN(Cc1ccc(CO)o1)Cc1ccccc1F | inactive |
| Cc1nc(N2CCC(C(=O)NC3CCCc4ccccc43)CC2)nc2ccccc12 (stereo not drawn) | inactive |
| CCOCCOC(=O)C1=C(C)NC(=O)NC1c1ccc(OCc2ccccc2)cc1 (stereo not drawn) | inconclusive: 10% |
| CC(C)CCn1c(=O)n(CCN2C[C@H]3CC[C@@H]2C3)c2cc(C(=O)O)cnc21 | inconclusive: 10% |
| COc1c(O)cc2cc(C)oc(=O)c2c1O | inactive |
| CC(=O)NCCc1c(C(=O)O)[nH]c2ccc(C(C)=O)cc12 | inactive |
| Cc1cc(C)c(C#N)c(SC2CC(=O)N(c3ccccc3)C2=O)n1 (stereo not drawn) | inconclusive: 21% |
| CC(CN1CCCC1CO)c1ccccc1 (stereo not drawn) | inconclusive: 10% |
| Cn1cc(CN(CC2CCN(C3CCCC3)CC2)CC2CCCO2)cn1 (stereo not drawn) | inconclusive: 11% |
| CCc1cccc(NC(=O)CN2CCCN(Cc3cccc(F)c3)S2(=O)=O)c1 | inactive |
| CC(=O)c1c(C)nn(CC(=O)N2CC3CC4CC2C[C@@H](C4)C3)c1C | inconclusive: 17% |
| Cc1[nH]cnc1CN(C)Cc1cccc2ncccc12 | inconclusive: 13% |
| COc1ccc(NC(=O)c2cccc(Cl)c2Cl)c(OC)c1 | inconclusive: 13% |

| SMILES | inhibition |
| --- | --- |
| Cc1cccc(OCCCOc2ccc(/C=C3/C(=N)N4C=CSC4=NC3=O)cc2)c1C | inactive |
| Cc1cnc(C(=O)N2CCOc3ccc(C(O)C(c4ccccc4)c4ccccc4)cc3C2)cn1 (stereo not drawn) | inconclusive: 15% |
| CC(=O)c1ccc(Oc2ccc(C(C)=O)cc2)cc1 | inconclusive: 15% |
| O=C(c1cncc(N2CC[C@@H](c3ccc4c(c3)OCO4)[C@H](O)C2)n1)N1CCCC1 | inconclusive: 15% |
| Cc1ccc(OCCn2nnc3ccccc32)c(C)c1 | inactive |
| O=C(CC1(O)C(=O)N(Cc2ccc(Cl)cc2)c2ccccc21)c1cccc([N+](=O)[O-])c1 (stereo not drawn) | inconclusive: 15% |
| O=C1c2ccccc2C(=O)N1Cc1nc2ccc(Br)cn2c1NC1CCCCC1 | inconclusive: 16% |
| COc1ccc(/C=C(/C#N)c2nc(-c3ccc(Br)cc3)cs2)cc1OC | inconclusive: 27% |
| COc1cc(OC)cc(C(=O)Nc2c(C(=O)Nc3ccccc3F)oc3ccccc23)c1 | inconclusive: 16% |
| O=S(=O)(NCCN1CCCC1)c1cccc2cccnc12 | inconclusive: 10% |
| CS(=O)(=O)NCC(=O)NCc1cnn2ccccc12 | inactive |
| COc1cc(NC(=O)c2ccc([N+](=O)[O-])c(C)c2)cc(OC)c1 | inconclusive: 20% |
| CCc1ccc(C(=O)c2c[nH]c3ccc(F)cc3c2=O)cc1 | active: 42% |
| O=C(c1ccc(O)cn1)N1CCCC(Nc2cccc(F)c2)C1 (stereo not drawn) | inconclusive: 15% |
| COc1cccc(NC(=O)C2c3cc(OC)c(OC)cc3C(=O)N(C)C2c2cccs2)c1 (stereo not drawn) | inconclusive: 14% |
| O=C(c1ccc2c(c1)N(Cc1cccc(Cl)c1)C(=O)CS2)N1CCOCC1 | inconclusive: 11% |
| COCCCNC(=O)CN1C(=O)/C(=C/c2ccccc2C)Sc2ccccc21 | inconclusive: 23% |
| CCCCNC(=O)C1(O)c2ccccc2NC(=O)N1c1ccccc1 (stereo not drawn) | inconclusive: 11% |
| Cc1ccc(CN2C[C@H](O)C[C@H]2c2nc(CS(=O)(=O)c3ccc(F)cc3)no2)cc1 | inconclusive: 11% |
| O=C(CCn1ccccc1=O)N1CCC2(CCCO2)CC1 | inactive |
| O=C(O)C(CO)Nc1nc(-c2ccccc2)nc2ccccc12 (stereo not drawn) | inactive |
| COc1ccc(-c2noc([C@@H]3C[C@H](NS(=O)(=O)Cc4ccccc4)CN3C)n2)cc1 | inconclusive: 20% |
| CN(C)CCN(C)CC[C@H]1CN(C(=O)C2CCCC2)CC[C@H]1CC(=O)O | inconclusive: 11% |
| O=C(c1cc(-c2ccccc2)on1)N1CCCn2cncc2C1 | inconclusive: 12% |

| SMILES | inhibition |
| --- | --- |
| COc1ccc(NC(=O)NCCc2nc3cccnc3n2Cc2ccc(C)cc2)cc1 | inconclusive: 22% |
| Cc1c(C(=O)NC(=O)NCCC(C)C)c(Cl)nc(Cl)c1[N+](=O)[O-] | inconclusive: 22% |
| CCOC(=O)c1sc(=NC(=O)c2ccc(S(=O)(=O)N(C)c3ccccc3)cc2)n(C)c1C | inconclusive: 15% |
| N#Cc1c(NC(=O)c2cc(-c3cccc(Cl)c3)on2)sc2c1CCC2 | inactive |
| COc1ccc(/C=C(/NC(=O)c2ccco2)C(=O)Nc2cccc(C)c2)cc1 | inactive |
| CCC(c1ccccc1)c1nc(-c2ccc([N+](=O)[O-])cc2)no1 (stereo not drawn) | inconclusive: 13% |
| Cc1cc(Nc2ccc3c(c2)OCCO3)c2cc(Cl)ccc2n1 | inconclusive: 12% |
| CCNC(=O)c1c(NC(=O)C2COc3ccccc3O2)sc2c1CCCC2 (stereo not drawn) | inconclusive: 14% |
| O=C(O)CCCC(=O)Nc1cccc(Cl)c1Cl | inconclusive: 17% |
| O=C(Nc1cccc(-c2ccco2)c1)C1CCN(C(=O)c2cc(=O)c3ccccc3o2)CC1 | inconclusive: 13% |
| COc1ccc(-c2noc([C@@H]3Cc4nc[nH]c4CN3C(=O)Nc3cccc(F)c3)n2)cc1 | inconclusive: 17% |
| CCN(CC)CC(=O)Nc1c(C(=O)c2ccccc2)oc2ccccc12 | active: 43% |
| CC(=O)c1ccc2c(c1)OCCOCCOc1ccc(C(C)=O)cc1OCCO2 | inconclusive: 10% |
| O=C(Nc1cccc(N2CCC(NCc3cccc(OC(F)(F)F)c3)CC2)c1)C1CC1 | inconclusive: 20% |
| Cc1nc2ccccc2nc1NO | inconclusive: 16% |
| Cc1ccc(-c2nc3n(n2)C(=O)CC(c2ccc(Cl)cc2)S3)cc1 (stereo not drawn) | inconclusive: 18% |
| CCn1cc(C(=O)NC2CCCCC2)c(=O)c2cc(S(=O)(=O)N3CCOCC3)ccc21 | inconclusive: 10% |
| O=C(c1ccccc1Cl)N1CCCCC1 | inactive |
| CC/C=C(\C)CN1CCN(C)C2(CCN(C(=O)c3ccccc3F)CC2)C1 | inconclusive: 15% |
| CC(C)(NC(=O)c1cccs1)C(=O)NC1CCCCCC1 | inconclusive: 20% |
| Cc1cc(C)n(C2CCN(Cc3c(C(=O)N4CCCC4)nc4ccccn34)C2)n1 (stereo not drawn) | inconclusive: 24% |
| CCOc1ccc2nc(SCC(=O)Nc3ccc4c(c3)OCO4)[nH]c2c1 | inactive |
| COc1ccc(C(=O)Nc2ccc(NC(=O)c3ccccc3)cc2)cc1[N+](=O)[O-] | inconclusive: 12% |
| Cc1cc(C)c(-c2nc(C(N)=O)c3c(n2)n(-c2ccc(C)c(C)c2)c(=O)n3C)c(C)c1 | inconclusive: 13% |

Shown in CSV form: 5 of the compounds above.
SMILES,inhibition
COc1ccc(NC(=O)NCCc2nc3cccnc3n2Cc2ccc(C)cc2)cc1,inconclusive: 22%
N#Cc1c(NC(=O)c2cc(-c3cccc(Cl)c3)on2)sc2c1CCC2,inactive
COc1ccc(/C=C(/NC(=O)c2ccco2)C(=O)Nc2cccc(C)c2)cc1,inactive
CCNC(=O)c1c(NC(=O)C2COc3ccccc3O2)sc2c1CCCC2 (stereo not drawn),inconclusive: 14%
O=C(Nc1cccc(N2CCC(NCc3cccc(OC(F)(F)F)c3)CC2)c1)C1CC1,inconclusive: 20%

Remaining list, next part

| SMILES | inhibition |
| --- | --- |
| CC(C)n1c(=N)c(C(=O)NCc2ccccc2)cc2c(=O)n3ccccc3nc21 | inconclusive: 15% |
| Nc1ccc2c(c1)C(=O)N(CC1CCCO1)C2=O (stereo not drawn) | inconclusive: 20% |
| Cc1ccc(Cl)cc1NS(=O)(=O)c1ccc2c(c1)CCN2C(=O)C1CC1 | inactive |
| Cc1ccc(OCCOCCN2CCOCC2)cc1 | inactive |
| CCCCNC(=O)C1CCC(Cn2c(=O)c3sccc3n(CC(=O)NC(C)CC)c2=O)CC1 (stereo not drawn) | inconclusive: 11% |
| CC(=O)N1CCN=C1SCc1ccccc1F | inconclusive: 12% |
| C=CCC1Cc2ccccc2N1 (stereo not drawn) | inconclusive: 26% |
| CCN(CC)CCNS(=O)(=O)c1c(C)c(C)cc2nsnc12 | inconclusive: 14% |
| O=C1CC(/C=C/c2ccccc2)=Nc2ccccc2N1 | inconclusive: 12% |
| Cc1cc(C)c2ccc(C=O)nc2c1O | inconclusive: 16% |
| Cc1ccc(S(=O)(=O)N2CCN(C(=O)COc3ccccc3)C2c2ccccc2)cc1 (stereo not drawn) | inactive |
| CC1(C)CC(=O)C2=C(C1)OC(N)=C(C#N)C2c1ccc(OC(=O)c2ccccc2Cl)cc1 (stereo not drawn) | inactive |
| O=C(CN1CCOCC1)Nc1c(C(=O)c2ccc(F)cc2)oc2ccccc12 | inconclusive: 19% |
| CCOC(=O)c1c(NC(=O)C(C)Sc2cn(C)c3ccccc23)sc2c1CCCC2 (stereo not drawn) | inactive |
| Cn1c(CNc2ccc(Cl)cc2[N+](=O)[O-])c(C#N)c2ccccc21 | inconclusive: 15% |
| Cc1ccccc1Cn1c(=O)c2c(nc3n2CCN3c2ccccc2)n(C)c1=O | inconclusive: 13% |
| COc1cc(/C=C2\SC(c3ccccc3)=NC2=O)cc(Br)c1O | active: 40% |
| N#Cc1ccccc1S(=O)(=O)N1C[C@@H]2C[C@H](C1)c1ccc(-c3cccc(C(F)(F)F)c3)c(=O)n1C2 | inconclusive: 10% |
| CC(=O)N1/C(=C/c2ccc(N(C)C)cc2)C(=O)c2ccccc21 | active: 66% |
| Cc1ccccc1C(CC(=O)NCCc1ccncc1)c1ccccc1 (stereo not drawn) | inconclusive: 16% |
| Cc1ccccc1NC1SC(=O)N(Cc2ccccc2)C1=O (stereo not drawn) | inactive |
